These results are taken from patent publication US20200325233A1.

Sequences of proteins named here, by UniProt entry; tags and fusion partners are left off. A change or cut given only in a name is not applied to a line headed by its entry.
UniProt Q96E93: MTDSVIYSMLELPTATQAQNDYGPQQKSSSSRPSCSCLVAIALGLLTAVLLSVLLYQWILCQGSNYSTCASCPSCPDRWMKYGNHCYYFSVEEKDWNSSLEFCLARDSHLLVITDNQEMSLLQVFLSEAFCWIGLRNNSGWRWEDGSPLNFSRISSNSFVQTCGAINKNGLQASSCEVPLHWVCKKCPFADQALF

These are yes or no findings as the source states them, for the method shown. Some binding calls cover weakened binding; strength is not graded here.

The target in assay [1] is human KLRG1 extracellular domain (ECD) (human) (UniProt Q96E93). As to the kind of experiment: hybridoma screening for binding to human KLRG1 ECD.
Assay [2] has the same target. As to the kind of experiment: hybridoma screening (Example 2).
In assay [3] the target is T1, cyno KLRG1 extracellular domain (ECD) (cynomolgus).
T1 sequence (chain, biotinylated in the Octet assay (site not stated)): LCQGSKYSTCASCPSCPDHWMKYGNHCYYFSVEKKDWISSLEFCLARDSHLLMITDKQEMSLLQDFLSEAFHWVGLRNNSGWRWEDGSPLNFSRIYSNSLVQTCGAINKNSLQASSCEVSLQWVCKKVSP
Kind of assay: hybridoma screening for binding to cyno KLRG1 ECD.

The target of assay [4] is T2, peptide PLNFSRI.
T2 sequence (peptide): PLNFSRI
Kind of assay: peptide mapping (FIG. 1 legend).

The target in assay [5] is T2, peptide PLNFSRI. As to the kind of experiment: peptide mapping.

B1: ABC_G1D01 (antibody, V domains shown)
VH: EVQLQQSGPELVKPGASVKMSCKASGYTFTDYNIHWVKQSHGKSLEWIGFFNPKNGVTINNQNFKGKAALTVNKSSSTAYMELRRLTSEDSAVYYCARDYYGTAWFAYWGQGTLVTVSA
VL: DIVMSQSPSSLAVSVGEKVTMSCRSSQSLLYSSNQKNYLAWYQQKPGQSPKLLIYWASTRESGVPDRFTGSGSGTDFTLTISSVKAEDLAVYYCQQFYSYPTFGGGTKLEIK
As to B1, the binding entry in assay [1], in assay [2] and in assay [3] was “binds” each time.

B2: ABC_G1D03 (antibody, V domains shown)
VH: EVQLQQSGPELVKPGASVKMSCKTSGYTFTDHNMHWLKQSHGKGLEWFGFINPNTGVTRYNQKFNGKATLTINKSSSTAYLDLRSLTSEDSAVYYCTRDYYGSAWFAYWGQGTLVTVSA
VL: DIVMSQSPASQTVSVGEKVTMSCKSSQTLLYSSDQKNYLAWYQQKPGQSPKLLIYWASTRESGVPDRFTGSGSGTDFTLTISSVKAEDLAVYYCQQYYNYPTFGGGTKLEIK
Take B2: the binding result in the assay with peptide PLNFSRI [4] and in the assay with peptide PLNFSRI [5] was “binds” each time.
